Assays:
[1] = Study scP-01-002: 80 mg SC as 30 mg over first hour then 12.5 mg per hour over 4 hours vs IV 40 mg x 2
[2] = population PK-PD model, patients with chronic heart failure; to be divided by factor FER

- Bioequivalence of SC infusion to IV on AUC0-8, AUClast and AUCinf ([1]; limits 80.00-[…]): BE to the IV, LD
- IC50, furosemide excretion rate into urine that provides 50% of maximum urine output rate [2]: 1,735,300 ng/hr
Structure (SMILES): NS(=O)(=O)c1cc(C(=O)O)c(NCc2ccco2)cc1Cl [furosemide, 4-chloro-2-(furan-2-ylmethylamino)-5-sulfamoyl-benzoic acid]
- Bioequivalence of SC infusion to IV on AUC0-2, AUC0-4 and AUC0-6 [1]: fell outside on the lower bound of the 80.00%-125.00% BE limits

— patent US20240189325A1 (scPharmaceuticals Inc., priority 2021, published 2024)
